For some assays here: For expression read-outs the peptide stands for its source gene, whose mRNA was measured; the gene is not named for every peptide.
Tests used:
source genes (mRNA) [1] = test: Gene and exon expression of source genes, TCGA tumor samples compared with normal tissue samples (Lonsdale, 2013) (Table 17); set-up: species or system human
HLA-A*02 = test: Identification and relative LC-MS quantitation of HLA-A*02-presented tumor-associated peptides on tissue samples (presentation profiles, Tables 13A, 13B, 15, FIG. 1); set-up: species or system human; key to Presentation score NHL / Presentation score CLL / Presentation score BRCA / Presentation score AML / Presentation score GB / Presentation score NSCLC / Presentation score GBC_CCC / Presentation score UEC / Presentation score MEL / Presentation score OSCAR / Presentation score GC / Presentation score UBC / Presentation score OC / Presentation score RCC / Presentation score CRC / Presentation score PCA / Presentation score HCC / Presentation score PC / Presentation score SCLC: specifically presented on tumors (++++); very highly over-presented on tumors compared to a panel of normal tissues (+++); highly over-presented on tumors compared to a panel of normal tissues (++); over-presented on tumors compared to a panel of normal tissues (+); conditions: for Presentation score AML: acute myeloid leukemia (N = 18) vs panel of normal tissues (N = 262); for Presentation score MEL: melanoma (N = 7) vs panel of normal tissues (N = 262); for Presentation score NHL: non-Hodgkin lymphoma (N = 18) vs panel of normal tissues (N = 262); for Presentation score NSCLC: non-small cell lung cancer (N = 90) vs panel of normal tissues (N = 262); for Peptide Presentation on cancer entities: HLA-A*02-binding tumor-associated peptides
source genes (mRNA) [2] = test: Expression profiling of source genes by in-house RNASeq of tumor and normal tissues (Table 18, FIG. 2); set-up: species or system human; key: very highly over-expressed in tumors compared to a panel of normal tissues (+++); highly over-expressed in tumors compared to a panel of normal tissues (++); over-expressed in tumors compared to a panel of normal tissues (+); conditions: source gene of peptide; for Expression score BRCA: BRCA tumors vs panel of normal tissues; for Expression score AML: acute myeloid leukemia (N = 11) vs panel of normal tissues; for Expression score CRC: colorectal cancer (N = 20) vs panel of normal tissues; for Expression score OSCAR: esophageal cancer incl. gastric-esophageal junction (N = 11) vs panel of normal tissues; for Expression score GB: glioblastoma (N = 24) vs panel of normal tissues; for Expression score NHL: non-Hodgkin lymphoma (N = 10) vs panel of normal tissues; for Expression score NSCLC: non-small cell lung cancer (N = 11) vs panel of normal tissues; for Expression score OC: ovarian cancer (N = 12) vs panel of normal tissues; for Expression score SCLC: small cell lung cancer (N = 10) vs panel of normal tissues; for Expression score UBC: urinary bladder cancer (N = 10) vs panel of normal tissues
[3] = Table 13A, cancer entities on which the peptide was found presented
[4] = Table 13B, presentation on additional cancer entities

## 138: peptide found in PRKDC (gene looked up) (ALLAKILQI; listed as Homo sapiens) [compound 138]
Source genes (mRNA) [1]; BLCA = Bladder urothelial carcinoma (N = 408), same cutoff
  Over-expression category of source gene (target coverage), BLCA: B (>= 20% of tumors above the cutoff, but <50%)
Source genes (mRNA) [1]; BRCA = Breast cancer (N = 1104), tumors more than 2-fold above highest 75% percentile of normal tissues
  Over-expression category of source gene (target coverage), BRCA: A (>=50% of tumors above the cutoff)
Source genes (mRNA) [1]; CHOL = Cholangiocarcinoma (N = 36), same cutoff
  Over-expression category of source gene (target coverage), CHOL: C (>=5% of tumors above the cutoff, but <20%)
Source genes (mRNA) [1]; COAD = Colon and rectal adenocarcinoma (N = 462), same cutoff
  Over-expression category of source gene (target coverage), COAD: B (>= 20% of tumors above the cutoff, but <50%)
Source genes (mRNA) [1]; DLBC = Lymphoid neoplasm diffuse large B-cell lymphoma (N = 48), same cutoff
  Over-expression category of source gene (target coverage), DLBC: C (>=5% of tumors above the cutoff, but <20%)
Source genes (mRNA) [1]; ESCA = Esophageal cancer (N = 185), same cutoff
  Over-expression category of source gene (target coverage), ESCA: A (>=50% of tumors above the cutoff)
Source genes (mRNA) [1]; GBM = Glioblastoma multiforme (N = 169), same cutoff
  Over-expression category of source gene (target coverage), GBM: C (>=5% of tumors above the cutoff, but <20%)
Source genes (mRNA) [1]; KICH = Kidney chromophobe (N = 66), same cutoff
  Over-expression category of source gene (target coverage), KICH: C (>=5% of tumors above the cutoff, but <20%)
Source genes (mRNA) [1]; KIRC = Clear cell kidney carcinoma (N = 534), same cutoff
  Over-expression category of source gene (target coverage), KIRC: C (>=5% of tumors above the cutoff, but <20%)
Source genes (mRNA) [1]; KIRP = Papillary kidney carcinoma (N = 291), same cutoff
  Over-expression category of source gene (target coverage), KIRP: C (>=5% of tumors above the cutoff, but <20%)
Source genes (mRNA) [1]; LAML = Acute Myeloid Leukemia (N = 173), same cutoff
  Over-expression category of source gene (target coverage), LAML: A (>=50% of tumors above the cutoff)
Source genes (mRNA) [1]; LGG = Lower grade glioma (N = 534), same cutoff
  Over-expression category of source gene (target coverage), LGG: B (>= 20% of tumors above the cutoff, but <50%)
Source genes (mRNA) [1]; LUAD = Lung adenocarcinoma (N = 517), same cutoff
  Over-expression category of source gene (target coverage), LUAD: B (>= 20% of tumors above the cutoff, but <50%)
Source genes (mRNA) [1]; LUSC = Lung squamous cell carcinoma (N = 503), same cutoff
  Over-expression category of source gene (target coverage), LUSC: A (>=50% of tumors above the cutoff)
Source genes (mRNA) [1]; OV = Ovarian serous cystadenocarcinoma (N = 309), same cutoff
  Over-expression category of source gene (target coverage), OV: C (>=5% of tumors above the cutoff, but <20%)
Source genes (mRNA) [1]; PAAD = Pancreatic ductal adenocarcinoma (N = 179), same cutoff
  Over-expression category of source gene (target coverage), PAAD: C (>=5% of tumors above the cutoff, but <20%)
Source genes (mRNA) [1]; PRAD = Prostate adenocarcinoma (N = 498), same cutoff
  Over-expression category of source gene (target coverage), PRAD: C (>=5% of tumors above the cutoff, but <20%)
Source genes (mRNA) [1]; READ = Colon and rectal adenocarcinoma (N = 167), same cutoff
  Over-expression category of source gene (target coverage), READ: B (>= 20% of tumors above the cutoff, but <50%)
Source genes (mRNA) [1]; SKCM = Skin cutaneous melanoma (N = 473), same cutoff
  Over-expression category of source gene (target coverage), SKCM: A (>=50% of tumors above the cutoff)
Source genes (mRNA) [1]; STAD = Stomach adenocarcinoma (N = 415), same cutoff
  Over-expression category of source gene (target coverage), STAD: A (>=50% of tumors above the cutoff)
Source genes (mRNA) [1]; UCEC = Uterine corpus endometrial carcinoma (N = 546), same cutoff
  Over-expression category of source gene (target coverage), UCEC: C (>=5% of tumors above the cutoff, but <20%)
HLA-A*02; HLA-A*02 peptides
  Presentation score AML: +++
  Presentation score MEL: ++
  Presentation score NHL: +
  Presentation score NSCLC: +
HLA-A*02; HLA-A*02 peptides, breast cancer (N = 17) vs panel of normal tissues (N = 262)
  Presentation score BRCA: +
HLA-A*02; HLA-A*02 peptides, chronic lymphocytic leukemia (N = 17) vs panel of normal tissues (N = 262)
  Presentation score CLL: +++
HLA-A*02; HLA-A*02 peptides, colorectal cancer (N = 28) vs panel of normal tissues (N = 262)
  Presentation score CRC: ++
HLA-A*02; HLA-A*02 peptides, gastric cancer (N = 29) vs panel of normal tissues (N = 262)
  Presentation score GC: +++
HLA-A*02; HLA-A*02 peptides, ovarian cancer (N = 20) vs panel of normal tissues (N = 262)
  Presentation score OC: +
HLA-A*02; HLA-A*02 peptides, renal cell carcinoma (N = 20) vs panel of normal tissues (N = 262)
  Presentation score RCC: ++
HLA-A*02; HLA-A*02 peptides, urinary bladder cancer (N = 16) vs panel of normal tissues (N = 262)
  Presentation score UBC: +
HLA-A*02; [3]
  Peptide Presentation on cancer entities: GB, GC, NSCLC, HCC, PCA, CLL, OSCAR, OC, SCLC, UBC, BRCA, GBC_CCC, MEL, RCC, CRC, AML, NHL
HLA-A*02; [4]
  Peptide Presentation on cancer entities: HNSCC
Source genes (mRNA) [2]
  Expression score BRCA: +
  Expression score AML: +
  Expression score CRC: +
  Expression score OSCAR: +
  Expression score GB: +
  Expression score NHL: +
  Expression score NSCLC: ++
  Expression score OC: ++
  Expression score SCLC: ++
  Expression score UBC: +
Source genes (mRNA) [2]; gallbladder adenocarcinoma and cholangiocarcinoma (N = 3) vs panel of normal tissues
  Expression score GBC_CCC: +
Source genes (mRNA) [2]; pancreatic cancer (N = 26) vs panel of normal tissues
  Expression score PC: +

## 44: peptide found in KNTC1 (gene looked up) (SLFETAWEA; listed as Homo sapiens) [compound 44]
Source genes (mRNA) [1]; Acute Myeloid Leukemia (N = 173), cutoff more than 2-fold above highest 75% percentile of normal tissue samples
  Target coverage: over-expression category of source gene, LAML: A (>=50% of tumors above the cutoff)
Source genes (mRNA) [1]; Bladder urothelial carcinoma (N = 408), cutoff more than 2-fold above highest 75% percentile of normal tissue samples
  Target coverage: over-expression category of source gene, BLCA: C (>=5% of tumors above the cutoff, but <20%)
Source genes (mRNA) [1]; Breast cancer (N = 1104), cutoff more than 2-fold above highest 75% percentile of high and medium risk normal tissue samples
  Target coverage: over-expression category of source gene, BRCA: B (>= 20% of tumors above the cutoff, but <50%)
Source genes (mRNA) [1]; Colon and rectal adenocarcinoma (N = 167), cutoff more than 2-fold above highest 75% percentile of normal tissue samples
  Target coverage: over-expression category of source gene, READ: B (>= 20% of tumors above the cutoff, but <50%)
Source genes (mRNA) [1]; Colon and rectal adenocarcinoma (N = 462), cutoff more than 2-fold above highest 75% percentile of normal tissue samples
  Target coverage: over-expression category of source gene, COAD: B (>= 20% of tumors above the cutoff, but <50%)
Source genes (mRNA) [1]; Esophageal cancer (N = 185), cutoff more than 2-fold above highest 75% percentile of normal tissue samples
  Target coverage: over-expression category of source gene, ESCA: A (>=50% of tumors above the cutoff)
Source genes (mRNA) [1]; Glioblastoma multiforme (N = 169), cutoff more than 2-fold above highest 75% percentile of normal tissue samples
  Target coverage: over-expression category of source gene, GBM: C (>=5% of tumors above the cutoff, but <20%)
Source genes (mRNA) [1]; Lung adenocarcinoma (N = 517), cutoff more than 2-fold above highest 75% percentile of normal tissue samples
  Target coverage: over-expression category of source gene, LUAD: C (>=5% of tumors above the cutoff, but <20%)
Source genes (mRNA) [1]; Lung squamous cell carcinoma (N = 503), cutoff more than 2-fold above highest 75% percentile of normal tissue samples
  Target coverage: over-expression category of source gene, LUSC: B (>= 20% of tumors above the cutoff, but <50%)
Source genes (mRNA) [1]; Lymphoid neoplasm diffuse large B-cell lymphoma (N = 48), cutoff more than 2-fold above highest 75% percentile of normal tissue samples
  Target coverage: over-expression category of source gene, DLBC: B (>= 20% of tumors above the cutoff, but <50%)
Source genes (mRNA) [1]; Ovarian serous cystadenocarcinoma (N = 309), cutoff more than 2-fold above highest 75% percentile of normal tissue samples
  Target coverage: over-expression category of source gene, OV: C (>=5% of tumors above the cutoff, but <20%)
Source genes (mRNA) [1]; Skin cutaneous melanoma (N = 473), cutoff more than 2-fold above highest 75% percentile of normal tissue samples
  Target coverage: over-expression category of source gene, SKCM: B (>= 20% of tumors above the cutoff, but <50%)
Source genes (mRNA) [1]; Stomach adenocarcinoma (N = 415), cutoff more than 2-fold above highest 75% percentile of normal tissue samples
  Target coverage: over-expression category of source gene, STAD: B (>= 20% of tumors above the cutoff, but <50%)
HLA-A*02; HLA-A*02 peptides
  Presentation score AML: ++++
  Presentation score MEL: ++++
  Presentation score NHL: ++++
  Presentation score NSCLC: ++++
HLA-A*02; [3]
  Peptide Presentation on cancer entities: NSCLC, MEL, AML, NHL
HLA-A*02; [4]
  Peptide Presentation on cancer entities: UEC, CRC, HNSCC
Source genes (mRNA) [2]
  Expression score BRCA: +
  Expression score AML: +
  Expression score CRC: +
  Expression score OSCAR: +
  Expression score GB: +
  Expression score NHL: +++
  Expression score NSCLC: ++
  Expression score OC: +
  Expression score SCLC: +++
  Expression score UBC: +
Source genes (mRNA) [2]; chronic lymphocytic leukemia (N = 10) vs panel of normal tissues
  Expression score CLL: ++
Source genes (mRNA) [2]; uterine cancer (N = 10) vs panel of normal tissues
  Expression score UEC: +
